# Article PMC2835651
# These are yes or no findings as the source states them, for the method shown.
# Biological target: prototype foamy virus (PFV) PR-RT (prototype foamy virus (PFV)) (UniProt P14350)
# Assay: SEC; Superdex 200 HR 10/30 calibrated with catalase, aldolase, ovalbumine and chymotrypsinogen; 0.5 ml/min; 10 nmol PFV PR-RT in 50 mM Na2HPO4/NaH2PO4 pH 7.4, 300 mM NaCl, 0.5 mM DTT; both purified
substance,measurement,value
prototype foamy virus (PFV) PR-RT (from UniProt P14350 1-751) (enzyme),binding,no binding (tested: 10 nmol loaded)
